# Test results published in PubChem BioAssay AID1671190 (National Center for Advancing Translational Sciences (NCATS), 2021).
# Chains of the proteins cited; added tags and fusions are not shown. Lines headed by an entry give the natural chain unless they say otherwise; changes in a name come on top.
# UniProt P18054: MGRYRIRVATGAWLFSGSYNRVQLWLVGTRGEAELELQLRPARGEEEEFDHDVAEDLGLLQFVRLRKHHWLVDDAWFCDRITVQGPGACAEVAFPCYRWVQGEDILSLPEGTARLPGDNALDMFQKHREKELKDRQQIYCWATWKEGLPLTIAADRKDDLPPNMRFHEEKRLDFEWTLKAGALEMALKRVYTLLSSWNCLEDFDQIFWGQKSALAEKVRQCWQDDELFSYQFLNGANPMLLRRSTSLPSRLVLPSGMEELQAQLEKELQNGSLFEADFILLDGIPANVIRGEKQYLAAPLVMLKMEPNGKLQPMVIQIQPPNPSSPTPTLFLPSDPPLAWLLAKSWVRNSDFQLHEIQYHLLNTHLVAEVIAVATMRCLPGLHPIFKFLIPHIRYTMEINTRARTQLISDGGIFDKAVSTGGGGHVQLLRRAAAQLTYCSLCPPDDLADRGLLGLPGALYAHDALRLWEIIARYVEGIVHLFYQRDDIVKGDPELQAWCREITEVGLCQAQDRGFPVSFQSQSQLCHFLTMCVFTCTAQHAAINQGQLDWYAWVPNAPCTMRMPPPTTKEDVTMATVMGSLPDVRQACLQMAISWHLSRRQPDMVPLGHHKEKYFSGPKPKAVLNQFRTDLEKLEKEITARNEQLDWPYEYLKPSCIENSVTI
# The whole screen tested about 580,000 compounds, of which about 6,100 (1.1%) were called active. This list was built around the results that the source calls inconclusive (neither active nor inactive); the mix of calls is not that of the screen. Calls come from the whole dose curve; as a rule, active = well fitted inhibition curve with a large enough effect; inconclusive = small, poorly fitted or top-dose-only effect, or another doubt; inactive = no such curve, though single readings can be large or run the other way. A potency beside an inconclusive call is a rough fit, not a confirmed value.
# Molecular target: Polyunsaturated fatty acid lipoxygenase ALOX12 (Homo sapiens) (UniProt P18054)
# Assay: Primary qHTS assay for inhibitors of human arachidonate 12S-lipoxygenase (ALOX12): Round 2
# Settings: purified 12hLO, xylenol orange hydroperoxide absorbance; activity change, negative = inhibition: at 108 µM (top of the series) unless noted
# Outline: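 Purified human 12hLO (150 nM final) in 25 mM Hepes, 0.01% Triton X-100, pH 7.0 was preincubated 15 min at room temperature with compound. Then 40 uM arachidonic acid was added, 30 min. Hydroperoxide was read by Fe-XO absorbance ratio 573/405 nm.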
# % is set by controls: 0 for no effect and ±100 for the full control effect; potency is the fitted concentration of half-maximal effect.
Compound,Potency,"activity change, negative = inhibition"
CCOC(=O)c1c2ccccc2[n+]([O-])n1[C@@H](C)C(N)=O,"inconclusive: 31.6 µM [inhibitor, single point]",–
COc1ccc(C(=O)N2CCC3(CC2)CCN(c2cccc(-c4ccccc4)c2)CC3)cc1,inactive,–
Cc1ccccc1-n1ncc2c1CC(C)(C)CC2NC(=O)c1cn[nH]c1C (stereo not given),inactive,–
Cc1cc[n+](-c2[nH]c(=O)sc2/C=N/NC([S-])=Nc2ccccc2)cc1C,"inconclusive: 11.2 µM [inhibitor, partial curve, poor fit]",–
CC(C)[C@H](NC(=O)OC(C)(C)C)c1cc(C(=O)NC2CC2)c(N)s1,"inconclusive: 100 µM [inhibitor, single point]",–
Cc1ccc(NC(=O)c2cc3c(N4CCSCC4)nc(C)cn3n2)c(F)c1,inactive,–
COc1ccc2nc(SCC(=O)c3c(C)[nH]c4ccccc34)nc(C)c2c1,inactive,–
CC(C)CNC(=O)Cc1ccc2c(c1)CCCC2,inactive,–
Cc1cccc(OC[C@H]2C[C@@H](NCc3c(C)noc3C)[C@H](O)[C@@H]2O)n1,"inconclusive: 22.4 µM [inhibitor, full curve, poor fit]",–
O=C(O)c1cncnc1/C=C/c1ccc2ccccc2c1,"inconclusive: 50.1 µM [inhibitor, partial curve, poor fit]",–
Cc1ccc(N2CCN(C(=O)Cc3c(C(=O)O)c(C)cn3C)CC2)c(C)c1,"inconclusive: 44.7 µM [inhibitor, partial curve, poor fit]",–
O=C(Nc1ccc(F)cc1)[C@H](CSCc1ccccc1)N1Cc2ccccc2C1=O,"inconclusive: 112 µM [inhibitor, partial curve, poor fit]",–
O=C(Cc1cccs1)N1CCN(c2ccc([N+](=O)[O-])cc2)CC1,"inconclusive: 50.1 µM [inhibitor, partial curve, poor fit]",–
O=C(Cn1nc(-c2cccs2)c2ccccc2c1=O)NCc1cccc(Cl)c1,"inconclusive: 50.1 µM [inhibitor, partial curve, poor fit]",–
COc1c(C)cccc1C(=O)NC(=S)Nc1ccccc1N1CCCC1,"inconclusive: 28.2 µM [inhibitor, partial curve]",–
Cc1cnc(CNc2cc(-c3cccc(NS(C)(=O)=O)c3)ncn2)cn1,"inconclusive: 3.98 µM [inhibitor, full curve, poor fit]",–
CN1CCN(CCOc2ccc(Cl)c(Cl)c2)CC1,"inconclusive: 0.398 µM [inhibitor, full curve, poor fit]",–
CCOc1cc(S(=O)(=O)Nc2ccncc2)ccc1F,"inconclusive: 50.1 µM [inhibitor, partial curve, poor fit]",–
Cc1ccc(C(=O)NCC2(c3ccccc3)CC2)cc1C,"inconclusive: 7.08 µM [inhibitor, partial curve, poor fit]",–
N#CC(C(=O)NCc1ccccc1)=C1CCCCCC1,–,inconclusive: -31.1% [inhibitor]
Cc1ccc(N2CCN(C(=O)CCNS(=O)(=O)c3ccc4[nH]c(=O)ccc4c3)CC2)c(C)c1,"inconclusive: 44.7 µM [inhibitor, single point]",–
CC(C)N(C(=O)Cn1c(C2CC(=O)N(Cc3ccc(F)cc3)C2)nc2ccccc21)c1ccccc1 (stereo not given),inactive,–

Compound,Potency,"activity change, negative = inhibition"
CCC(=C/c1ccccc1)/C=N/O,inactive,–
N#C/C(=C/c1cc(Br)ccc1OC(F)F)c1ccccn1,"inconclusive: 31.6 µM [inhibitor, partial curve]",–
O[C@H]1CC[C@@H](Cc2cc(-c3ccccc3)on2)O[C@@H]1CNC1CCCCC1,inactive,–
CN(C)CCCN(C(=O)c1ccco1)c1nc2ccc(F)cc2s1,inactive,–
OCc1ccc(-c2nn(Cc3ccccc3)c3ccccc23)o1,"inconclusive: 56.2 µM [inhibitor, partial curve, poor fit]",–
COc1ccc2[nH]c(=O)c(CN(C(=O)c3cccnc3)C3CCCCC3)cc2c1,"inconclusive: 112 µM [inhibitor, single point]",–
CCOC(=O)c1ccc(Oc2coc3cc(OC(=O)c4cccs4)ccc3c2=O)cc1,inactive,–
CC1CCCN(Cc2c(O)ccc3c(=O)c(-c4nc5ccccc5s4)c(N)oc23)C1 (stereo not given),inactive,–
CN1CCN(c2ccc3cc(S(=O)(=O)N4CCCC4)ccc3n2)CC1,"inconclusive: 14.1 µM [inhibitor, partial curve, poor fit]",–
Cc1nnc(NC(=O)CSc2ncc(-c3ccccc3)[nH]2)s1,"inconclusive: 25.1 µM [inhibitor, partial curve, poor fit]",–
O=c1c2c3c(sc2ncn1/N=C/c1ccc(Br)o1)CCCC3,"inconclusive: 0.282 µM [inhibitor, full curve, poor fit]",–
Cc1cc2nc3n(c(=O)c2n1CC(=O)Nc1cccc(Br)c1)CCCCC3,"inconclusive: 79.4 µM [inhibitor, partial curve]",–
CC(C)OC(=O)CSc1nc(N2CCOCC2)c2c(c1C#N)CC(C)(C)OC2,"inconclusive: 141 µM [inhibitor, single point]",–
CCOC(=O)c1oc2ccccc2c1COC(=O)Cn1cc(C(F)(F)F)ccc1=O,inactive,–
CC(C)Cc1ccc(C(C)(N)C(=O)O)cc1 (stereo not given),"inconclusive: 0.251 µM [inhibitor, full curve, poor fit]",–
Cc1cc(=O)oc(C)c1C(=O)OCC(=O)c1ccc(Cl)cc1,"inconclusive: 100 µM [inhibitor, single point]",–
COc1cc(CNc2ccccc2)c([N+](=O)[O-])cc1OC,"inconclusive: 0.794 µM [inhibitor, full curve]",–
COc1cccc(NC(=O)CCNS(=O)(=O)c2ccc(Br)s2)c1,"inconclusive: 50.1 µM [inhibitor, partial curve, poor fit]",–
COc1ccccc1C(=O)OCc1c(-c2ccccc2)ncc2ccccc12,"inconclusive: 79.4 µM [inhibitor, partial curve, poor fit]",–
CC(C)C(C)NC(=O)COC(=O)c1cccc(C(=O)OCC(=O)NC(C)C(C)C)n1 (stereo not given),inactive,–
Cc1ccc(S(=O)(=O)N2CCN(Cc3cccc(F)c3)CC2)cc1,"inconclusive: 0.562 µM [inhibitor, partial curve, poor fit]",–
CC(=O)NC(=S)Nc1cc(C(F)(F)F)ccc1N1CCOCC1,inactive,–

Compound,Potency,"activity change, negative = inhibition"
COc1ccc(-c2nc3cnc(OC)nc3n(CCc3ccccc3)c2=O)cc1,"inconclusive: 39.8 µM [inhibitor, single point]",–
COc1ccc(OC)c(S(=O)(=O)NC(=O)C2(C)CCN2C(=O)c2ccco2)c1 (stereo not given),"inconclusive: 63.1 µM [inhibitor, partial curve, poor fit]",–
CC(=O)C1C(c2ccc(Cl)cc2)c2c(n[nH]c2C)CC1(C)O (stereo not given),"inconclusive: 39.8 µM [inhibitor, single point]",–
COc1cc(Br)c(/C=C(\C#N)c2nc3ccccc3[nH]2)cc1OC,"inconclusive: 28.2 µM [inhibitor, partial curve]",–
COc1ccc(OC)c(NC(=O)C(=O)c2cn(CC(=O)N3CCOCC3)c3ccccc23)c1,inactive,–
COc1cccc(-c2cc(=O)c3cc(NC(=O)c4ccc(Cl)cc4)ccc3[nH]2)c1,"inconclusive: 50.1 µM [inhibitor, partial curve, poor fit]",–
CCc1nc2c(OCCOc3ccc(F)cc3)cccn2c1N(C)C(=O)c1ccc(C)cc1,"inconclusive: 2.82 µM [inhibitor, full curve, poor fit]",–
CC(C)Cn1c(-c2ccc(O)cc2)nc2c1c(=O)[nH]c(=O)n2Cc1ccccc1,"inconclusive: 14.1 µM [inhibitor, full curve, poor fit]",–
CC(=O)c1ccc(-c2ccc([C@H]3[C@@H]4C=CCC[C@@]4(C)C(=O)N3Cc3ccccc3)c(F)c2)cc1,inactive,–
CCc1ccc2oc(-c3cc(N)ccc3O)nc2c1,"inconclusive: 39.8 µM [inhibitor, single point]",–
CCCc1nc(C)c(-c2ccc(OC)c(OC)c2)c(=O)[nH]1,"inconclusive: 0.224 µM [inhibitor, full curve, poor fit]",–
O=C(Cc1ccccc1)NNC(=O)c1ccc(NC(=O)c2ccccc2)cc1,inactive,–
CC(NCc1ccc(OCc2ccc(Cl)cc2)cc1)C(O)c1ccccc1 (stereo not given),"inconclusive: 39.8 µM [inhibitor, partial curve, poor fit]",–
CCOc1ccc(CNc2ccc3c(c2)ncn3C)cc1,"inconclusive: 8.91 µM [inhibitor, full curve, poor fit]",–
Cc1cccc(CNc2ncnc3ccc(-c4ccccc4CN(C)C)cc23)c1,"inconclusive: 0.794 µM [inhibitor, full curve, poor fit]",–
O=C(c1ccco1)N1CCN(C(=O)c2cc3sccc3n2Cc2ccccc2)CC1,inactive,–
CC(C)CN1CCc2nc(N3CCN(c4ncccn4)CC3)ncc2C1,"inconclusive: 28.2 µM [inhibitor, partial curve, poor fit]",–
Cc1cc(C(=O)NCC(F)(F)F)c2c(C3CCCNC3)noc2n1 (stereo not given),–,inactive: 6.07% [at 6.33 µM]
CCc1cccc(CC)c1-n1c(SCC(=O)N2CCc3ccccc3C2)nnc1-c1cccnc1,"inconclusive: 158 µM [inhibitor, partial curve, poor fit]",–
CC(C)OCCCNC(=O)c1ccc(-n2c(-c3ccccc3)cc3c2CCCC3)cc1,"inconclusive: 50.1 µM [inhibitor, partial curve, poor fit]",–
Cc1ccc(N2C(=O)CSC23C(=O)N(CC(=O)NC2CCCCC2)c2ccccc23)cc1 (stereo not given),"inconclusive: 158 µM [inhibitor, partial curve, poor fit]",–

# Some of these compounds in order of SMILES length, rising:
Compound,Potency,"activity change, negative = inhibition"
COc1c(C)cccc1C(=O)NC(=S)Nc1ccccc1N1CCCC1,"inconclusive: 28.2 µM [inhibitor, partial curve]",–
CN1CCN(c2ccc3cc(S(=O)(=O)N4CCCC4)ccc3n2)CC1,"inconclusive: 14.1 µM [inhibitor, partial curve, poor fit]",–
COc1ccc(-c2nc3cnc(OC)nc3n(CCc3ccccc3)c2=O)cc1,"inconclusive: 39.8 µM [inhibitor, single point]",–
CCOC(=O)c1oc2ccccc2c1COC(=O)Cn1cc(C(F)(F)F)ccc1=O,inactive,–
CC1CCCN(Cc2c(O)ccc3c(=O)c(-c4nc5ccccc5s4)c(N)oc23)C1 (stereo not given),inactive,–
